Reference: the M2OR odorant receptor database
Where a chain is given by its changes, count along the chain named. The entries are a selection whose mix differs from that of the whole data set. Calls are pooled over several reports, among them a noisy single-well screen. The list shows a part of the results.

Chains of the proteins cited; added tags and fusions are not shown. A line that says so, or that is headed by a name, gives the form on record, which may keep a tag or linker.
O4F17, as listed by the source: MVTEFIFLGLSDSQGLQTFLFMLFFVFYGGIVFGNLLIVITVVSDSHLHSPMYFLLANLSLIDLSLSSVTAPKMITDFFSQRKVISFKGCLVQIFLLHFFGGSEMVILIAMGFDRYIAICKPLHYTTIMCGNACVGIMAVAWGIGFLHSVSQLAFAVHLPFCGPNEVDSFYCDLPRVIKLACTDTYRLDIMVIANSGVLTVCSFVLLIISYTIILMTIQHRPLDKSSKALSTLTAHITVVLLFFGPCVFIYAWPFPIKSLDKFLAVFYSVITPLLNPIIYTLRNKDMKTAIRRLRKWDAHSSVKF
O51E1, as listed by the source: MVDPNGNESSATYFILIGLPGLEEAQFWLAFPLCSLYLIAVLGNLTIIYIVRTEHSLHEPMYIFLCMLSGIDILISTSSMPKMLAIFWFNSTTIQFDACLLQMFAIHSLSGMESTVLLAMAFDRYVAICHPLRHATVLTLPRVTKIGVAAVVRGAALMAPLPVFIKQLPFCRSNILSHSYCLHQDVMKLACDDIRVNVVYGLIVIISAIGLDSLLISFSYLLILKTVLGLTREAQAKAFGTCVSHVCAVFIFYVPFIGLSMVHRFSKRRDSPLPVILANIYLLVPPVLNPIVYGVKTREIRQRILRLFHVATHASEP
O4C46, as listed by the source: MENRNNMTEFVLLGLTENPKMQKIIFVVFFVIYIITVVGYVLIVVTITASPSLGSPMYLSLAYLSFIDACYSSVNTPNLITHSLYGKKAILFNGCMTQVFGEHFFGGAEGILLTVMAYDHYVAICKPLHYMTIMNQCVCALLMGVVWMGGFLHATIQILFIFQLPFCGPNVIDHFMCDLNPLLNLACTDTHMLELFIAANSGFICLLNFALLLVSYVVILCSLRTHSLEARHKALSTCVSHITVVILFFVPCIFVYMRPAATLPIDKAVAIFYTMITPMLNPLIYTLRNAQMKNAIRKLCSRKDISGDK
O4A15, as listed by the source: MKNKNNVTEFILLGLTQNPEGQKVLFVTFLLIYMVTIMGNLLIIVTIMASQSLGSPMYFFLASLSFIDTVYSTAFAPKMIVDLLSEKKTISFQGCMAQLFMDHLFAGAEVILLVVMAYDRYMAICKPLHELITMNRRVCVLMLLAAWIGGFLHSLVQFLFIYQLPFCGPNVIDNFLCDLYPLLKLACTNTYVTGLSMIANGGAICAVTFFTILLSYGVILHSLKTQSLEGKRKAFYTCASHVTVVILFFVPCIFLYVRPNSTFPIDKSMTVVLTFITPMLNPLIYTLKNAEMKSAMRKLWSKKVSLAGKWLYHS

What was measured:
Settings in all cases: stereoisomer not certain
[1] = system: T1, O2T11
T1 sequence (whole entry): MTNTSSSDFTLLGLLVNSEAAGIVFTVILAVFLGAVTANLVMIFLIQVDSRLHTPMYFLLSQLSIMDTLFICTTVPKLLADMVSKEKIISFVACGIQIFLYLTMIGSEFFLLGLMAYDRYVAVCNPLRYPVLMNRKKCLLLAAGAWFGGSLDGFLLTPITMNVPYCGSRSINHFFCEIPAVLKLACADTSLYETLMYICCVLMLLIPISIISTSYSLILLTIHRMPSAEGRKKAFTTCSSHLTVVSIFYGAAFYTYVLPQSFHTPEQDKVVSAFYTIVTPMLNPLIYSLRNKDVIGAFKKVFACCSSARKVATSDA
Outline: (§1)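 Assay methods differ from source to source, frequently being transient luciferase assays in mammalian cell lines. For each receptor–molecule pair, the label responsive (active) applies when the original authors judged the measured signal statistically different from baseline, and non-responsive (inactive) applies otherwise.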

[2] = system: T2, O2T29
T2 sequence (whole entry): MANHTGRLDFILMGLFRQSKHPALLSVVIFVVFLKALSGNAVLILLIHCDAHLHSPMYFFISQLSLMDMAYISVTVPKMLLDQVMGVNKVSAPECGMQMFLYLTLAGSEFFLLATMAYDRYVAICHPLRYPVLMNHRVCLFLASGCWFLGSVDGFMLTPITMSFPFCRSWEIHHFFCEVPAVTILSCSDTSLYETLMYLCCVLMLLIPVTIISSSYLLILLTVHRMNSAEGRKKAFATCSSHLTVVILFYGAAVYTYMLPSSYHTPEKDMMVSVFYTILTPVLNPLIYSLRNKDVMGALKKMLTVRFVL
Outline: as §1

[3] = system: T3, O2T29; remark: listed apart in the source
T3 sequence (whole entry): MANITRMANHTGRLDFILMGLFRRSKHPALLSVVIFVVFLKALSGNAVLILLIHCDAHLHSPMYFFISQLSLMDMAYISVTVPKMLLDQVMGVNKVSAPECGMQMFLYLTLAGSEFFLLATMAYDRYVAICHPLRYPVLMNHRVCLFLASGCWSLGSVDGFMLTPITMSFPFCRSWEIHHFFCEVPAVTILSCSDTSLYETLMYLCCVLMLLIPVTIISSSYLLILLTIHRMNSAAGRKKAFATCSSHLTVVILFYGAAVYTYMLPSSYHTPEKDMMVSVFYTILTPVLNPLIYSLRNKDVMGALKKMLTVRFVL
Outline: as §1

[4] = system: T4, O2T33
T4 sequence (whole entry): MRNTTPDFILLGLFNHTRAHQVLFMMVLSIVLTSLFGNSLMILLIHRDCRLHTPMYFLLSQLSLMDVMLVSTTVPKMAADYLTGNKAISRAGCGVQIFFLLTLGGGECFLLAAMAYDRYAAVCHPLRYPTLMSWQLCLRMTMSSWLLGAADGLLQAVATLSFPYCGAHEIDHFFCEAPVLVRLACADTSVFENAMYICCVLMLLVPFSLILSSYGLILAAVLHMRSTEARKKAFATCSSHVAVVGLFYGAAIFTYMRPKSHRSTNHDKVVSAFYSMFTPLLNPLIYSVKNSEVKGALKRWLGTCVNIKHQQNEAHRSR
Outline: as §1

[5] = system: T5, O2T34
T5 sequence (whole entry): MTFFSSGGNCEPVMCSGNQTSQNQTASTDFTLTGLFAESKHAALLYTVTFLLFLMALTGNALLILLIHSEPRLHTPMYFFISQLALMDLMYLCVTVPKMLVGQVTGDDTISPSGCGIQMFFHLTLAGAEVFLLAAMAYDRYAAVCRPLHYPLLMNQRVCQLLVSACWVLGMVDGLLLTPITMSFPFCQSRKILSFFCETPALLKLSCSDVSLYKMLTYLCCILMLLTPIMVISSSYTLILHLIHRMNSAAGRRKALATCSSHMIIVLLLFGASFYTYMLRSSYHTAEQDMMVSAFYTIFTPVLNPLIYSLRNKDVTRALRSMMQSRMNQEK
Outline: as §1

[6] = system: T6, O2T35
T6 sequence (whole entry): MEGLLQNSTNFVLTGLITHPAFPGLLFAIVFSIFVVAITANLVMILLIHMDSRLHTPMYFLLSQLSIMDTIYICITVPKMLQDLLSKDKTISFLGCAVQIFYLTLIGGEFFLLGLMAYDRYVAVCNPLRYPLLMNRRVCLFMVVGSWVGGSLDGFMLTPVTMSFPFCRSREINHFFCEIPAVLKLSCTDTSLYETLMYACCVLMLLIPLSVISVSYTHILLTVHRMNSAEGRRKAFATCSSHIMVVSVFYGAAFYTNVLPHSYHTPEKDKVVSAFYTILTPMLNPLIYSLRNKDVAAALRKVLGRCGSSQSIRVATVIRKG
Outline: as §1

[7] = system: O4A15
Outline: as §1

[8] = system: T7, O4A47
T7 sequence (whole entry): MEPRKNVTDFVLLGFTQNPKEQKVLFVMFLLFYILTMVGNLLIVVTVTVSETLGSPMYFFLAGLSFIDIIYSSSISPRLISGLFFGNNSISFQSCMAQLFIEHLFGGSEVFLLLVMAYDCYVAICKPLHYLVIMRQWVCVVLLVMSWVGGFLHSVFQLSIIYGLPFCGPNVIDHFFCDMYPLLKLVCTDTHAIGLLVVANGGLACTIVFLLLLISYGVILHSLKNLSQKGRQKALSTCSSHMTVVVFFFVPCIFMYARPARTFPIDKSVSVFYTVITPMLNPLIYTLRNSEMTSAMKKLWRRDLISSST
Outline: as §1

[9] = system: O4C46
Outline: as §1

[10] = system: T8, O4F17
T8 sequence (whole entry): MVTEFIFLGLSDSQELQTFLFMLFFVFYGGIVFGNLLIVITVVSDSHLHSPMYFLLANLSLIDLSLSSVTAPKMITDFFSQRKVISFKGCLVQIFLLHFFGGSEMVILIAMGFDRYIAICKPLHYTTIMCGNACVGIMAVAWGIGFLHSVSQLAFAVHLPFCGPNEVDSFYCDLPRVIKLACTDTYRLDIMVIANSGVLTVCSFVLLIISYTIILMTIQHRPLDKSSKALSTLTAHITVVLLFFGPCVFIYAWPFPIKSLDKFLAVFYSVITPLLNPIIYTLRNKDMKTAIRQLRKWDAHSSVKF
Outline: as §1

[11] = system: T9, O4F17; remark: listed apart in the source
T9 sequence (whole entry): T8 sequence (whole entry) with E15G, Q293R
Outline: as §1

[12] = system: T10, O4F21
T10 sequence (whole entry): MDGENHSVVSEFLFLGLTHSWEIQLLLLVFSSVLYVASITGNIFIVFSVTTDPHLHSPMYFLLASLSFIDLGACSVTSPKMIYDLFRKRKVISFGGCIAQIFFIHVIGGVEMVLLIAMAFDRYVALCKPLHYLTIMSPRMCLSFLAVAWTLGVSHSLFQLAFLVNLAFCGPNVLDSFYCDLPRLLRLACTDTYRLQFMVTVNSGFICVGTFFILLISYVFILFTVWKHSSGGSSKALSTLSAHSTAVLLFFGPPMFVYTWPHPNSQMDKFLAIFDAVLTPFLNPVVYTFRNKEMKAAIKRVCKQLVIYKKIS
Outline: as §1

[13] = system: T11, O51A4
T11 sequence (whole entry): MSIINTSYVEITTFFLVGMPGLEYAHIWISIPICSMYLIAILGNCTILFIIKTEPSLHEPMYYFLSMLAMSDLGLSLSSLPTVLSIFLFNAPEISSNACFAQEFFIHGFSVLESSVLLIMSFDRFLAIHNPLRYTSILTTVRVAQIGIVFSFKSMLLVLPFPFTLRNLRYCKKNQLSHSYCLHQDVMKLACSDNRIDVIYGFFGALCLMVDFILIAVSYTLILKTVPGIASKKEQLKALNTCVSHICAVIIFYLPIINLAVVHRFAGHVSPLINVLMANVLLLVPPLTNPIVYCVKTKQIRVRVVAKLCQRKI
Outline: as §1

[14] = system: T12, O51B4
T12 sequence (whole entry): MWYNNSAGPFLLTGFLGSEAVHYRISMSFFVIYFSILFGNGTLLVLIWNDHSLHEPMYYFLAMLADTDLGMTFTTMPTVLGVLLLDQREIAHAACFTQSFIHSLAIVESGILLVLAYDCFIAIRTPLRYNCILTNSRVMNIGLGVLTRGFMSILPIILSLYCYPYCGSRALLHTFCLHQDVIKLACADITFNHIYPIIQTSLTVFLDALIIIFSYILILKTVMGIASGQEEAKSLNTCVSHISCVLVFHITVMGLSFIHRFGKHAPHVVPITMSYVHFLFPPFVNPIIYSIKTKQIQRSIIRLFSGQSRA
Outline: as §1

[15] = system: T13, O51B5
T13 sequence (whole entry): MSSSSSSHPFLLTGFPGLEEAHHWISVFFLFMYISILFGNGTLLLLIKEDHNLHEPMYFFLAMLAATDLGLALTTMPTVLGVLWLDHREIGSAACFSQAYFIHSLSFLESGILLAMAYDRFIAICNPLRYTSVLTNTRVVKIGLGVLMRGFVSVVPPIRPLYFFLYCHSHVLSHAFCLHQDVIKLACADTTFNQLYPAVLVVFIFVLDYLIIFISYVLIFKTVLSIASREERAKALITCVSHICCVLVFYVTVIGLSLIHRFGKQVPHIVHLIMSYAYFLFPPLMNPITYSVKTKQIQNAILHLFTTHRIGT
Outline: as §1

[16] = system: T14, O51B6
T14 sequence (whole entry): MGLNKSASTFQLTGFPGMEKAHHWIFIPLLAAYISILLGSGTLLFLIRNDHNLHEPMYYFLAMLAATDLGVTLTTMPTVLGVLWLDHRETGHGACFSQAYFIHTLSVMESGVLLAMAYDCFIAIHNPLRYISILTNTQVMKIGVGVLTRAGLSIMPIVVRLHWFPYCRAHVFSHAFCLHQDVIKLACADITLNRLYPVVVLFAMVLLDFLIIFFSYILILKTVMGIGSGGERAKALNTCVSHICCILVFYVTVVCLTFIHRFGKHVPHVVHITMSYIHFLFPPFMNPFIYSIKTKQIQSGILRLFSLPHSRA
Outline: as §1

[17] = system: T15, O51E1
T15 sequence (whole entry): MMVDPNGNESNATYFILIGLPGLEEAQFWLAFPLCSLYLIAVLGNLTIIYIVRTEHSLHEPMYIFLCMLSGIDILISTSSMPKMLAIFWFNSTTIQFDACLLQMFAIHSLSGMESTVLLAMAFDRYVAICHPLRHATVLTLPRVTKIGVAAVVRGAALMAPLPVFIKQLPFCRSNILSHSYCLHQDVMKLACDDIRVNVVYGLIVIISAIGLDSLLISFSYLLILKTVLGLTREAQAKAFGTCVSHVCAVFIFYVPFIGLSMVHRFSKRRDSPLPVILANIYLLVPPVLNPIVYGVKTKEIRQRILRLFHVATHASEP
Outline: as §1

[18] = system: O51E1; remark: listed apart in the source
Outline: as §1

[19] = system: T16, O51F1
T16 sequence (whole entry): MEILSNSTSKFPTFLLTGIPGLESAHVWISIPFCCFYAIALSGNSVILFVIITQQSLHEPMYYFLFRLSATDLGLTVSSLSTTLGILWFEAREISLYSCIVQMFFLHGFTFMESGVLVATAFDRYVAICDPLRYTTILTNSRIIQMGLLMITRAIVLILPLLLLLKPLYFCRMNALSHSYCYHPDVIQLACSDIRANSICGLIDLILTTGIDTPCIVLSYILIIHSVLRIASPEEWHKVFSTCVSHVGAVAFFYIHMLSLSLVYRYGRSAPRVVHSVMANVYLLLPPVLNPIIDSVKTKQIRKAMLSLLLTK
Outline: as §1

[20] = system: T17, O51F2
T17 sequence (whole entry): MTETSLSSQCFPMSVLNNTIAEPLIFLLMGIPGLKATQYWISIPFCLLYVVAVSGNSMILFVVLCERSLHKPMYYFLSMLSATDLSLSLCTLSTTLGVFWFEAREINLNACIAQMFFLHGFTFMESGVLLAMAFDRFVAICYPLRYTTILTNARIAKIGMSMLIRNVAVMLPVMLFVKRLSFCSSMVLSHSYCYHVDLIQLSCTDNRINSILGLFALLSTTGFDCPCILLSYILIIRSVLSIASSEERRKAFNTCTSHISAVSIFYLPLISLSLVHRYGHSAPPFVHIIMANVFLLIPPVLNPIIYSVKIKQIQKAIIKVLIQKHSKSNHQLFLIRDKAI
Outline: as §1

Measured: odorant receptor agonist call

CC(C)CC(=O)O
active: [17] | [18]
inactive: all other assays above

C=C(C)C1CCC2=CC(=O)CC(C)C2(C)C1 (stereo not drawn)
active: [4] | [6] | [15]
inactive: [8] | [11] | [12] | [14] | [16]

COC(=O)c1ccccc1
inactive: [7] | [9] | [10] | [13] | [17] | [19] | [20]
active: [1] | [3] | [5]

CCC=CCCO
active: [14]
not listed: [18]
inactive: all other assays above

O=C1CCCCC1
inactive: [1] | [3] | [5] | [7] | [9] | [10] | [13] | [17] | [19] | [20]

COc1ccccc1O
not listed: [18]
inactive: all other assays above

CC(=O)c1ccccc1
inactive: [1] | [3] | [5] | [7] | [9] | [10] | [13] | [17] | [19] | [20]

CCCCCCCOC(C)=O
not listed: [18]
inactive: all other assays above

CC(C)(O)CCCC1=CCC(C=O)CC1 (stereo not drawn)
inactive: [4] | [6] | [8] | [12] | [14] | [15]
active: [11] | [16]

CC(=O)OCC=C(C)CCC=C(C)C
active: [4] | [6] | [11] | [12] | [14] | [17]
not listed: [18]
inactive: all other assays above

C=CCc1ccc(OC)c(OC)c1
not listed: [18]
inactive: all other assays above

CC1COCc2cc3c(cc21)C(C)(C)C(C)C3(C)C (stereo not drawn)
inactive: [1] | [2] | [6] | [7] | [13] | [14] | [15]
not listed: [18]
active: all other assays above

O=C1CCCCCCCCCCCCCCO1
not listed: [18]
inactive: all other assays above

C=CCc1ccc(OC(C)=O)c(OC)c1
active: [4] | [6] | [8] | [11] | [12] | [14] | [15] | [16]
not listed: [18]
inactive: all other assays above
